From PubChem BioAssay AID504842 (National Center for Advancing Translational Sciences (NCATS), 2011)
The whole screen tested about 330,000 compounds, of which about 100 (0.03%) were called active. The inconclusive results got no clear call from the source; some entries with a clear call stand among them for comparison. Calls come from the whole dose curve; as a rule, active = well fitted inhibition curve with a large enough effect; inconclusive = small, poorly fitted or top-dose-only effect; inactive = flat fitted curve, though single readings scatter. Where the call is inconclusive, the potency comes from a doubtful curve fit.

test system: Chaperonin Mm-Cpn (Methanococcus maripaludis); test: Inhibitors of TCP-1 ring complex (TRiC) of Methanococcus maripaludis (MmCpn): qHTS; conditions: purified Mm-Cpn ATPase, ADP Transcreener TR-FRET; activity, negative = inhibition: at the top concentration; note: nearly all actives have a fitted effect of over 80% in size;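 for potency: enzyme at 25 nM with ATP substrate at 10 µM during the reaction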
Outline: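 Compound-treated chaperonin, 25 nM final, turns over 10 uM ATP at 37°C for 30 min following a 10 min preincubation; ADP generated competes with ADP-d2 for Eu-cryptate antibody, lowering FRET.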
% is set by controls: 0 for no effect and ±100 for the full control effect; potency is the fitted concentration of half-maximal effect.

Compound | Potency | activity, negative = inhibition
O=C1C2C3C=CC(C3)C2C(=O)N1Cc1ccc(CN2C(=O)C3C4C=CC(C4)C3C2=O)cc1 (stereo not drawn) | inconclusive: 22.4 µM [inhibitor, single point] | 
CCOC(=O)N1CCN(Cc2cc(=O)oc3cc4c(cc23)CCC4)CC1 | inconclusive: 56.2 µM [inhibitor, single point] | 
Cc1cc(C)cc(NC(=O)CSCc2cc(=O)n3ccsc3n2)c1 | inconclusive: 100 µM [inhibitor, single point] | 
O=C1/C(=C/c2ccc([N+](=O)[O-])cc2)CCc2ccccc21 |  | inactive: -0.808%
Cc1c(C)n(CC(O)CN2CCCCC2)c2ccccc12 (stereo not drawn) |  | inactive: 0.287%
CCOC(=O)c1nnn(CC(=O)N2N=C(c3ccc(Cl)cc3)CC2c2ccc(OC)cc2)c1C(=O)OCC (stereo not drawn) |  | inactive: 0.227%
Cc1csc(N/N=C/c2ccc([N+](=O)[O-])cc2)n1 | inconclusive: 20 µM [inhibitor, single point] | 
CCN(CCCNC(=O)Cn1ncc2c(=O)oc3ccccc3c21)c1cccc(C)c1 | inconclusive: 100 µM [inhibitor, partial curve, poor fit] | 
COc1ccc(S(=O)(=O)N2CCOCC2)cc1N=Nc1sc(N)nc1-c1ccccc1 |  | inactive: -4.31%
COc1ccc(-c2csc(CCn3nc(C)cc3C)n2)cc1 |  | inactive: -6%
O=C(O)c1ccc2c(=O)n3c(nc2c1)/C(=C/c1ccc(Cl)c(Cl)c1)CC3 | inconclusive: 79.4 µM [inhibitor, single point] | 
COCCCN1C(=O)C(=O)/C(=C(/O)c2ccc(S(=O)(=O)N3CCOCC3)cc2)C1c1ccc(C(C)C)cc1 (stereo not drawn) | inconclusive: 79.4 µM [inhibitor, single point] | 
O=C1C2=C(CCCC2)C(=O)N1c1cccc(OCCBr)c1 | inconclusive: 15.8 µM [inhibitor, single point] | 
COc1ccc(C(=O)NC(=S)Nc2ccccc2N2CCN(S(C)(=O)=O)CC2)cc1OC | inconclusive: 355 µM [inhibitor, partial curve, poor fit] | 
O=C(CN1C(=O)NC2(CCOc3ccccc32)C1=O)c1ccc(Cl)s1 (stereo not drawn) | inconclusive: 79.4 µM [inhibitor, partial curve] | 
O=C1c2ccccc2-c2onc3ccc(NCc4ccco4)c1c23 | inconclusive: 100 µM [inhibitor, partial curve] | 
CCOc1ccc(CCNC(=O)CSc2nn(-c3ccc(C)c(Cl)c3)c(=S)s2)cc1OCC | inconclusive: 89.1 µM [inhibitor, single point] | 
O=C(NCc1cccc(C(F)(F)F)c1)C1CCCN(c2cnccn2)C1 (stereo not drawn) |  | inactive: 0.994%
CCn1c(=O)c(=O)[nH]c2cc(C(=O)NC3CCCc4ccccc43)ccc21 (stereo not drawn) |  | inactive: -0.748%
O=C(CSc1nc2ccccc2c(=O)n1Cc1ccc(Cl)cc1)NCc1cccs1 | inconclusive: 100 µM [inhibitor, single point] | 
O=C(Oc1cccc(C(=S)N2CCOCC2)c1)c1ccc([N+](=O)[O-])cc1 |  | inactive: -3.49%
CN(C)S(=O)(=O)Nc1cccc(-c2cn3c(n2)SCC3)c1 |  | inactive: 1.15%

Compound | Potency | activity, negative = inhibition
Cc1ccc(NC(=O)c2c(-c3c(F)cccc3Cl)noc2C)cc1F | inconclusive: 100 µM [inhibitor, single point] | 
CCc1ccc(N2C(=O)Nc3ccccc3C2(O)C(=O)N2CCN(c3ccccn3)CC2)cc1 (stereo not drawn) | inconclusive: 11.2 µM [inhibitor, single point] | 
CCOc1ccccc1-c1nc(-c2ccc(NC(=O)Cc3ccccc3OC)cc2)no1 | inconclusive: 89.1 µM [inhibitor, partial curve] | 
Cc1ccc(C(=O)Nc2cccnc2Oc2ccc(Cl)cc2)cc1 | inconclusive: 20 µM [inhibitor, single point] | 
O=C(O)c1cccc(CN2C(=O)SC(Nc3cccc4ccccc34)C2=O)c1 (stereo not drawn) |  | inactive: -3.61%
CC(C)(C)c1ccc(CCC2OCC(C[N+]3(C)CCOCC3)O2)cc1 (stereo not drawn) |  | inactive: -0.712%
N#Cc1ccccc1OCC(=O)N1N=C(c2cccs2)CC1c1ccco1 (stereo not drawn) | inconclusive: 25.1 µM [inhibitor, single point] | 
COc1ccc2c(COC(=O)CC3Sc4ccccc4NC3=O)cc(=O)oc2c1 (stereo not drawn) | inconclusive: 100 µM [inhibitor, single point] | 
COc1ccc(NC(=O)c2sc3ncnc(N4CCN(c5ccccn5)CC4)c3c2C)cc1Cl | inconclusive: 126 µM [inhibitor, partial curve, poor fit] | 
c1ccc(CN2CCN(c3nc4ccccc4n4cnnc34)CC2)cc1 |  | inactive: 1.53%
COc1ccc(NC(=O)CCC(=O)Nc2nnc(C3CCCCC3)s2)c(OC)c1 | inconclusive: 12.6 µM [inhibitor, single point] | 
CSc1ccccc1NC(=O)Nc1ccc(Cl)cc1 | inconclusive: 100 µM [inhibitor, partial curve, poor fit] | 
COC(C[C@@H](O)CC(=O)[C@@H](C)OCc1ccccc1)OC | inconclusive: 100 µM [inhibitor, single point] | 
COc1ccc(-c2cnc(NCc3cc4c(cc3[N+](=O)[O-])OCO4)n2C)cc1 | inconclusive: 100 µM [inhibitor, single point] | 
CN(C(=O)Nc1cnccc1C(F)(F)F)C1CCCCC1 | inconclusive: 14.1 µM [inhibitor, single point] | 
COC(=O)/C(=C\C(=O)c1ccccc1)Nc1ccc(OC)cc1 |  | inactive: -0.138%
Cc1sc2nc(C(C)C)nc(SCC(=O)N3CCN(C(=O)c4ccco4)CC3)c2c1C | inconclusive: 282 µM [inhibitor, partial curve, poor fit] | 
COc1ccc(-c2nc(C)c(C(C)=O)n2O)cc1[N+](=O)[O-] | inconclusive: 11.2 µM [inhibitor, single point] | 
Cc1ccc(CN(C(=O)c2c(F)cccc2F)C2CC(C)(C)NC(C)(C)C2)o1 | inconclusive: 10 µM [inhibitor, single point] | 
CN(C)c1cccc(NC(=O)NC2(C)CCS(=O)(=O)C2)c1 (stereo not drawn) | inconclusive: 11.2 µM [inhibitor, single point] | 
CN(C)c1ccc(O)c2c1CC1CC3[C@@H](N(C)C)C(=O)C(C(N)=O)=C(O)[C@]3(O)C(=O)C1=C2O (stereo partly drawn) |  | inactive: -2.32%

Complete entries, quoted from the list.
O=C1C2=C(CCCC2)C(=O)N1c1cccc(OCCBr)c1 is entered as Potency: inconclusive: 15.8 µM [inhibitor, single point]
Cc1cc(C)cc(NC(=O)CSCc2cc(=O)n3ccsc3n2)c1 is entered as Potency: inconclusive: 100 µM [inhibitor, single point]
